Measurements from patent US20190002527A1.
No constants are given. Whether binding was seen depends on the method and setting. For part of these data: Binding seen in cells or lysates may run through a third protein. Some binding calls cover weakened binding; strength is not graded here.

Sequences of proteins named here, by UniProt entry; tags and fusion partners are left off. A change or cut given only in a name is not applied to a line headed by its entry.
UniProt Q01650: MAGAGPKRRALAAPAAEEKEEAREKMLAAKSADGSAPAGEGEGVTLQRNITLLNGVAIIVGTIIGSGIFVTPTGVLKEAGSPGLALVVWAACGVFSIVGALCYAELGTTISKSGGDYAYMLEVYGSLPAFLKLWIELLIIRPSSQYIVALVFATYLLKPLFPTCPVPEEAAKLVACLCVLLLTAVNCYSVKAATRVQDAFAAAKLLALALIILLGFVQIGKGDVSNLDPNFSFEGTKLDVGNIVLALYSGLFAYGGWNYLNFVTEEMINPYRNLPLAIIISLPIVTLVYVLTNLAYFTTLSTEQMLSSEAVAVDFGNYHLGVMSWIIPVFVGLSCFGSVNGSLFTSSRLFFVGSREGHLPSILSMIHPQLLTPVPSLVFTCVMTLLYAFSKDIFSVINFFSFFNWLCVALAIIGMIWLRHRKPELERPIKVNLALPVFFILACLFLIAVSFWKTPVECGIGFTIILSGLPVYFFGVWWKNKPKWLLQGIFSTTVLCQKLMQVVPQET
UniProt Q9HBA0: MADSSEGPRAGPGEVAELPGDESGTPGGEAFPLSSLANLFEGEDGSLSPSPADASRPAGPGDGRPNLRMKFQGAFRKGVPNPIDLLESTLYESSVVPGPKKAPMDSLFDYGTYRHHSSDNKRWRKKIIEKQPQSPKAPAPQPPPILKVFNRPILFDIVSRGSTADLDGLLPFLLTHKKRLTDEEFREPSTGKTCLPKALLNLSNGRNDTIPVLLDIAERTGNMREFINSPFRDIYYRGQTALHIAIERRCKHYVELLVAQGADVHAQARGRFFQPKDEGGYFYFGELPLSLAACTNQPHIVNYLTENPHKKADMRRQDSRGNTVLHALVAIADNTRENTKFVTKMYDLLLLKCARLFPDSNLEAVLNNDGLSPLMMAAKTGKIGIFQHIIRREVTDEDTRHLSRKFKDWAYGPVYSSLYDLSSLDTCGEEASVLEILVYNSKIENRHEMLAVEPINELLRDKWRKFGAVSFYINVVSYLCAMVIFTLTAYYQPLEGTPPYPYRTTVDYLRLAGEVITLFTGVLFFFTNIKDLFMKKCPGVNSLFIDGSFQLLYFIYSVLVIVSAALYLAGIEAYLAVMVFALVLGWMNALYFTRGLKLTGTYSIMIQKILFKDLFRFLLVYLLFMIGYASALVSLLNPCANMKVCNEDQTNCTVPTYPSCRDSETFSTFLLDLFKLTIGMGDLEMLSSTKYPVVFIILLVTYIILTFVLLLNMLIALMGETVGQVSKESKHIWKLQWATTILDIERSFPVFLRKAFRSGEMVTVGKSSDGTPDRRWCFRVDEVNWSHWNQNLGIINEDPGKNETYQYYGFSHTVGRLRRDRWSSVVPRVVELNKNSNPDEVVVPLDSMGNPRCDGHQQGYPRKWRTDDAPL
UniProt P05556: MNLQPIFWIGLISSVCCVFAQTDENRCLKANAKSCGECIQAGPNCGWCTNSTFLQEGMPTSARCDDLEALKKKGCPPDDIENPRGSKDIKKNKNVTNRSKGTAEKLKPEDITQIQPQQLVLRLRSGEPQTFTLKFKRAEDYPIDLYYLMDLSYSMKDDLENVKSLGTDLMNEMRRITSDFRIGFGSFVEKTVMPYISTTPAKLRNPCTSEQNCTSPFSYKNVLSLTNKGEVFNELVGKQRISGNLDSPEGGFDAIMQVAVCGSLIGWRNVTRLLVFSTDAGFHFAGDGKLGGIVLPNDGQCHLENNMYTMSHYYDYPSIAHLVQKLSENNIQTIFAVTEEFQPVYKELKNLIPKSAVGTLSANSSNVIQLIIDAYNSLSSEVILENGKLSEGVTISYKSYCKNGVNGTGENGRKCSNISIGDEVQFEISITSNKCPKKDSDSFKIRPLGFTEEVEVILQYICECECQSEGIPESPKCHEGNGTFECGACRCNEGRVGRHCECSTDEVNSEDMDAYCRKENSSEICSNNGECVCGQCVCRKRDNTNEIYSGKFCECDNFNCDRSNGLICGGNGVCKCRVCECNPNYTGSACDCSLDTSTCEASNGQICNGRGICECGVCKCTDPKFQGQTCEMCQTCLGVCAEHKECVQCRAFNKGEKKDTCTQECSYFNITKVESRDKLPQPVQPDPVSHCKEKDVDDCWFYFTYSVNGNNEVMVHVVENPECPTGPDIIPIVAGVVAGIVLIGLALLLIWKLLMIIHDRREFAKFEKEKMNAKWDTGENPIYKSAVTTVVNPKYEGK

Experiments:
[1] = target: CD98 (cluster of differentiation 98) (human) (UniProt Q01650); assay: immunoprecipitation assay with deletion construct
[2] = target: CD98 (cluster of differentiation 98) (human) (UniProt Q01650); assay: co-IP with deletion construct
[3] = target: TRPV4 (transient receptor potential vanilloid 4) (human) (UniProt Q9HBA0); assay: summary of the example's co-IP data
[4] = target: β1-integrin (human) (UniProt P05556); assay: summary of the example's co-IP data
[5] = target: β1-integrin (human) (UniProt P05556); assay: co-IP and localisation
[6] = target: TRPV4 (transient receptor potential vanilloid 4) (human) (UniProt Q9HBA0); assay: co-IP from HUVE cell lysate, IP anti-TRPV4, immunoblot
[7] = target: TRPV4 (transient receptor potential vanilloid 4) (human) (UniProt Q9HBA0); assay: co-IP from HUVE cells, IP anti-TRPV4
[8] = target: CD98 (cluster of differentiation 98) (human) (UniProt Q01650); assay: co-IP from HUVE cell lysate, IP anti-CD98
[9] = target: CD98 (cluster of differentiation 98) (human) (UniProt Q01650); assay: co-IP and localisation
[10] = target: CD98 (cluster of differentiation 98) (human) (UniProt Q01650); assay: co-IP from HUVE cell lysate, IP anti-CD98, immunoblot
[11] = target: CD98 (cluster of differentiation 98) (human) (UniProt Q01650); assay: co-IP and localisation, HUVE cells
[12] = target: CD98 (cluster of differentiation 98) (human) (UniProt Q01650); assay: co-IP from HUVE cells, IP anti-CD98

Measured: binding

TRPV4 with the transmembrane and C-terminal regions deleted (from UniProt Q9HBA0 1-469)
binds: [1] | [2]

CD98 (cluster of differentiation 98) (from UniProt Q01650 1-507)
binds: [3] | [4] | [5] | [6] | [7]

TRPV4 (transient receptor potential vanilloid 4) (from UniProt Q9HBA0 1-871)
binds: [8] | [9] | [10] | [11] | [12]
